{"source": "paper PMC6769490", "about": "“Protein Engineering of Multi-Modular Transcription Factor Alcohol Dehydrogenase Repressor 1 (Adr1p), a Tool for Dissecting In Vitro Transcription Activation” (Biomolecules, 2019)", "key": {"[1]": {"biological_target": "T1, Adr1-DBD (untagged) (Saccharomyces cerevisiae) (UniProt P07248)", "T1 sequence (looked up)": "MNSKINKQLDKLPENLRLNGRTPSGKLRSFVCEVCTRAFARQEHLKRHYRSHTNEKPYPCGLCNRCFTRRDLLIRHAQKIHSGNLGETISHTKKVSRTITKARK", "experiment": "SEC-HPLC", "details": "40 mM Na phosphate pH 7.5, 40 mM NaCl, 10% glycerol, 18 uM Zn acetate (+/- 5 mM CHAPS, DTT, spermine), 30 min 4 C; HPLC-purified: 20 mM phosphate pH 7.0, 40 mM NaCl; recombinant protein; residues 75-178; label: 33P or none (ethidium bromide)"}, "[2]": {"biological_target": "T2, His-miniAdr1-BL del1-74,del179-418,del472-1323 (Saccharomyces cerevisiae) (UniProt P07248)", "T2 sequence (looked up)": "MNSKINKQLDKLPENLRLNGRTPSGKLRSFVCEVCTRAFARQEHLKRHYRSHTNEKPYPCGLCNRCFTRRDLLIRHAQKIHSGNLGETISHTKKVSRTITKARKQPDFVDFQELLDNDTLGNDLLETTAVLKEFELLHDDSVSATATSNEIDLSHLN", "experiment": "EMSA", "details": "functional but unstable; 40 mM Na phosphate pH 7.5, 40 mM NaCl, 10% glycerol, 18 uM Zn acetate (+/- 5 mM CHAPS, DTT, spermine), 30 min 4 C; HPLC-purified: 20 mM phosphate pH 7.0, 40 mM NaCl; recombinant protein; residues 75-471; protein details: C-terminal His-tag; label: 33P or none (ethidium bromide)"}, "[3]": {"biological_target": "T3, His-Adr1-165 (Saccharomyces cerevisiae) (UniProt P07248)", "T3 sequence (looked up)": "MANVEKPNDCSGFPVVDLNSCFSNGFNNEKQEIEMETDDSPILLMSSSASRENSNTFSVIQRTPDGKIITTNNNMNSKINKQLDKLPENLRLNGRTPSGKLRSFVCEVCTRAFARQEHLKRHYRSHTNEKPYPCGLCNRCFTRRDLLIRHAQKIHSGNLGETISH", "experiment": "EMSA", "details": "after Ni-NTA step, which abolished binding (preparation effect); 40 mM Na phosphate pH 7.5, 40 mM NaCl, 10% glycerol, 18 uM Zn acetate (+/- 5 mM CHAPS, DTT, spermine), 30 min 4 C; HPLC-purified: 20 mM phosphate pH 7.0, 40 mM NaCl; recombinant protein; residues 1-165; protein details: His-tag; label: 33P or none (ethidium bromide)"}, "[4]": {"biological_target": "T4, miniAdr1-AL (untagged) del1-74,del158-400,del472-1323 (Saccharomyces cerevisiae) (UniProt P07248)", "T4 sequence (looked up)": "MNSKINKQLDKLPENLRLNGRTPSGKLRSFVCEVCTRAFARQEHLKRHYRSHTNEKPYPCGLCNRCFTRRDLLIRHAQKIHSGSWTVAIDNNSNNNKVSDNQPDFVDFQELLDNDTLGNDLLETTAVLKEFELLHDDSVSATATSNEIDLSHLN", "experiment": "EMSA", "details": "with or without DTT; 40 mM Na phosphate pH 7.5, 40 mM NaCl, 10% glycerol, 18 uM Zn acetate (+/- 5 mM CHAPS, DTT, spermine), 30 min 4 C; HPLC-purified: 20 mM phosphate pH 7.0, 40 mM NaCl; recombinant protein; residues 75-471; label: 33P or none (ethidium bromide)"}}, "note": "For some of these results: A negative result means that nothing was seen under these conditions. Where a protein sequence is shown, tags need not be part of it. For some of these results: For at least one entry, the source does not settle the construct or the ends of the probe. For some of these results: At least one verdict was read from the data and is not stated in words by the source."}
{"sequence": "TCCGGGCATCTCCAACTTA / CTAAGTTGGAGATGCCCGG [Half site UAS1]", "values": [{"measurement": "binding result", "setting": "[1]", "result": "binds"}, {"measurement": "binding result", "setting": "[2]", "result": "binds"}, {"measurement": "binding result", "setting": "[3]", "result": "no binding"}, {"measurement": "binding result", "setting": "[4]", "result": "binds"}]}
